No constants are given. Whether binding was seen depends on the method and setting. Some binding calls cover weakened binding; strength is not graded here.
What was measured:
[1] = molecular target: T1, GIRK1-NC-bait (GAL4-DNA binding domain fused to the N terminus of the GIRK1 subunit, a linker sequence GSSGSS and the C terminus of GIRK1) (rat) (UniProt P04386+P63251); assay: yeast two-hybrid cotransformation in Y190
[2] = molecular target: T1, GIRK1-NC-bait (GAL4-DNA binding domain fused to the N terminus of the GIRK1 subunit, a linker sequence GSSGSS and the C terminus of GIRK1) (rat); assay: yeast two-hybrid library screen in Y190 with GIRK1-NC-bait
[3] = molecular target: T1, GIRK1-NC-bait (GAL4-DNA binding domain fused to the N terminus of the GIRK1 subunit, a linker sequence GSSGSS and the C terminus of GIRK1) (rat); assay: yeast two-hybrid cotransformation

Chains of the proteins cited; added tags and fusions are not shown. Lines headed by an entry give the natural chain unless they say otherwise; changes in a name come on top.
UniProt P63251: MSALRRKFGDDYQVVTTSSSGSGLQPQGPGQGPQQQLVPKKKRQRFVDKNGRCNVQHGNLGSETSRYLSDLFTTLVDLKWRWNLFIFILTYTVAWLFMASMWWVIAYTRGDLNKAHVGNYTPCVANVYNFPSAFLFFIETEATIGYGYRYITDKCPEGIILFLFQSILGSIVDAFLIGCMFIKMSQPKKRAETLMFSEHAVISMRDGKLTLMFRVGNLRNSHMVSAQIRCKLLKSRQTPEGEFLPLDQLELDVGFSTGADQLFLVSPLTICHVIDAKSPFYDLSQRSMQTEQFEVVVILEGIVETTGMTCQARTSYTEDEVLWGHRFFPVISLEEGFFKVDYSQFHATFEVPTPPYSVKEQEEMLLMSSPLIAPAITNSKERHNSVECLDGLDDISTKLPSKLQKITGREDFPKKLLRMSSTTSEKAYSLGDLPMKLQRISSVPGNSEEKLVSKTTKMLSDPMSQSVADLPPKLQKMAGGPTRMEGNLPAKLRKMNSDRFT

binding [1] | binding [2] | binding [3] | Binder
binds | binds | – | GIRK1NCprey2 (nucleotides 1011-1349 of SEQ ID NO: 1, fragment of rat Mogli, in pPC86) (protein) ESERRLHERESEIMELKSQLARMREDWIEEECHRVEAQLALKEARKEIKQLKQVIETMRSSLADKDKGIQKYFVDINIQNKKLESLLQSMEMAHNSSLRDELCLDFSFDSPE
binds | – | binds | charged domain of the Mogli protein (SEQ ID NO: 6; amino acids 237-395 in SEQ ID NO: 2) cloned into pPC86 (protein, not shown: small tags and cut ends) GSYKGSDCSPVMRRSGRYMSCGENHGVKPPNPEQYLTPLQQKEVTVRHLRTKLKESERRLHERESEIMELKSQLARMREDWIEEECHRVEAQLALKEARKEIKQLKQVIETMRSSLADKDKGIQKYFVDINIQNKKLESLLQSMEMAHNSSLRDELCLD
binds | binds | – | GIRK1NCprey3 (nucleotides 500-1193 of SEQ ID NO: 1, fragment of rat Mogli, in pPC86) (protein) RIGMVGEGNIQSARYKKESKGGIIKPGSEADFSSSSSTGSISAPEVHMSTTGNKRASFSRNRGPHGRSNGAPSHKSGSSPPSPREKDLVSMLCRNPLSPSNIHPSYAPSSPSSSNSGSYKGSDCSPVMRRSGRYMSCGENHGVKPPNPEQYLTPLQQKEVTVRHLRTKLKESERRLHERESEIMELKSQLARMREDWIEEECHRVEAQLALKEARKEIKQLKQVIETMRS

Reference: patent publication US20030124568A1
